# Screening data, single-dose tests

Sequences of proteins named here, by UniProt entry; tags and fusion partners are left off. Residues count along the entry.
UniProt I6X8D2, whole entry: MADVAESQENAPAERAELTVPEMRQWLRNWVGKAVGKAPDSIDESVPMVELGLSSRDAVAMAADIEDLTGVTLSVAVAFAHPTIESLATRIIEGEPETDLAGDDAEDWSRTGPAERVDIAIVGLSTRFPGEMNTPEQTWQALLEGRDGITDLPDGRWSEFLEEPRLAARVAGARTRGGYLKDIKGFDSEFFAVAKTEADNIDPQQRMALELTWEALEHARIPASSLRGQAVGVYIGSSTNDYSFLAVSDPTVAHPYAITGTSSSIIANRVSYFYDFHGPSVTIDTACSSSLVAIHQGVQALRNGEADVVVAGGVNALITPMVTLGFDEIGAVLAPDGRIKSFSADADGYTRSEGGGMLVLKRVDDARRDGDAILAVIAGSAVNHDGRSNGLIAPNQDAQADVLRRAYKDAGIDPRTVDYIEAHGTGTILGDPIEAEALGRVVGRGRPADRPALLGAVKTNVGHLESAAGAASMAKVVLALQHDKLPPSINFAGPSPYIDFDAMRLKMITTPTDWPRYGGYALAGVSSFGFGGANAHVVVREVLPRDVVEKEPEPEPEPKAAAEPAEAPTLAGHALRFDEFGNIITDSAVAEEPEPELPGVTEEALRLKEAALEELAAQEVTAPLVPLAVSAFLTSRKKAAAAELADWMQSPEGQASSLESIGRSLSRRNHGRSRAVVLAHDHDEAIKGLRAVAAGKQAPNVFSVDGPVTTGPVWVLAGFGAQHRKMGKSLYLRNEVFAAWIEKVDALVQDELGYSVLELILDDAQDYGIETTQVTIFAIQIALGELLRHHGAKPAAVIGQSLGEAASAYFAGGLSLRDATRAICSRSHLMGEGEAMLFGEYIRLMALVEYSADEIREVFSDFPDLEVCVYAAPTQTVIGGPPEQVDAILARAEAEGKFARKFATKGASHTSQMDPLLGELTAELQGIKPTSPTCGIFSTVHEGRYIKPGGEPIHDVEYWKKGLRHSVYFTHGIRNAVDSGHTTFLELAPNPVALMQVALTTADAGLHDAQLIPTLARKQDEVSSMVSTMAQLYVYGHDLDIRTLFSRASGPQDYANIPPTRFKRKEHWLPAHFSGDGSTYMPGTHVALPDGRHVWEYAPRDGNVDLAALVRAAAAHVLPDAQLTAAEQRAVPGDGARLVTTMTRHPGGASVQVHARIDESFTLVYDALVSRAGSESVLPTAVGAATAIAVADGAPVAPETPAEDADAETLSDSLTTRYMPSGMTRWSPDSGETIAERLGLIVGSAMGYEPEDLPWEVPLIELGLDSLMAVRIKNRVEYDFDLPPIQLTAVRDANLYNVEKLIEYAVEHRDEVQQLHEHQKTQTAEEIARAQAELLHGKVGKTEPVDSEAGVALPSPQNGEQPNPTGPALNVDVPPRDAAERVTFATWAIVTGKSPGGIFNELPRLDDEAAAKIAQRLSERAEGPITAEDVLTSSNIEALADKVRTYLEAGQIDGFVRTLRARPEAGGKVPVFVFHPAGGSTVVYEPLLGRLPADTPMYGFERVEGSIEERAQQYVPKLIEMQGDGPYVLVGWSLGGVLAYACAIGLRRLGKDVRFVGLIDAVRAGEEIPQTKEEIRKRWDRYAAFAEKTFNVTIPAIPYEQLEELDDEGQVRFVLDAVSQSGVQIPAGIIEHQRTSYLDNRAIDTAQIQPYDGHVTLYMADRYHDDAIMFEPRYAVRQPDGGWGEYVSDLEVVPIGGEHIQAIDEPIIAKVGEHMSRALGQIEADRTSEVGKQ
UniProt P9WNZ1, whole entry: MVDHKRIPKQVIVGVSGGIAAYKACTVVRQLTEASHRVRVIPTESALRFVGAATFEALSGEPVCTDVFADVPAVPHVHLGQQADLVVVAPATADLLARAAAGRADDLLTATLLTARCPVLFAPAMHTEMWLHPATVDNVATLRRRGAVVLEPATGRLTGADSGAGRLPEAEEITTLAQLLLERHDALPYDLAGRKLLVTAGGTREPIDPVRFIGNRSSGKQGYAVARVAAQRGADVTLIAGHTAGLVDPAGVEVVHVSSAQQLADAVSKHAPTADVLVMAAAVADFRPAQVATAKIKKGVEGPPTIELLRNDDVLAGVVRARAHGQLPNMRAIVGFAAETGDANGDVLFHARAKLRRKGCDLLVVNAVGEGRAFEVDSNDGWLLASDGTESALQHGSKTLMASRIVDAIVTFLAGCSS
UniProt Q8IDJ8, 1-583: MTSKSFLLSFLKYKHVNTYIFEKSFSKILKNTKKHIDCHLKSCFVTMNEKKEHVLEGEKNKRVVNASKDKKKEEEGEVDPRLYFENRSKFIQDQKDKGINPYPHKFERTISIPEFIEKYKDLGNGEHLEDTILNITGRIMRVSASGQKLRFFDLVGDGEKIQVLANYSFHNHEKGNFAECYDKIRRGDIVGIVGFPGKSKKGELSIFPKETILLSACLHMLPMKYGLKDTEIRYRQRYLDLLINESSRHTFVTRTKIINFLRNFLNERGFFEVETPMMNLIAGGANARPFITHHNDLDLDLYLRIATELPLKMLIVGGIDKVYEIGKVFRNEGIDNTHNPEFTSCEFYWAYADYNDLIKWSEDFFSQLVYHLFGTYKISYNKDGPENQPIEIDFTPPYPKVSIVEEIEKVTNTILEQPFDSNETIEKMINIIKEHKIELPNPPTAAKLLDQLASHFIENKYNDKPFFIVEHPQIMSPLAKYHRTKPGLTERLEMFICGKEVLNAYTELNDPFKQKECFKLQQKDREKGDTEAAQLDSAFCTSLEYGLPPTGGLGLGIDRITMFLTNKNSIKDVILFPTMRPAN
UniProt Q4DA54, 1-478: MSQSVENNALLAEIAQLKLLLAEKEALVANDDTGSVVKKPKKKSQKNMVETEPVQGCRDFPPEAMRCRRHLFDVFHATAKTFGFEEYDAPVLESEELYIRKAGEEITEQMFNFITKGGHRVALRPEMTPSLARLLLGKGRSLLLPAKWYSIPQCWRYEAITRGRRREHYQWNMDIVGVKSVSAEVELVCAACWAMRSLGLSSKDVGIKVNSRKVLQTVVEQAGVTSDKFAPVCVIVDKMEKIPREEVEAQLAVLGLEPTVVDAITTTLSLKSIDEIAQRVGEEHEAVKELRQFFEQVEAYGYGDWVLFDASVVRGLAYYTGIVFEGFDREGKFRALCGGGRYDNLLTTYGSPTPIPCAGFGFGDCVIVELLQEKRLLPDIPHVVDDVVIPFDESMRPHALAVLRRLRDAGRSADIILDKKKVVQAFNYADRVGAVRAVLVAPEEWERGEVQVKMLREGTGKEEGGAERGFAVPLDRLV

Each number is a percent effect as filed. How 0% and 100% were set is not recorded. Most values in the screen are low, and negative values occur. Compounds were drawn at random from those tested, without regard to their results. A dash means the value is not listed here; it may have been measured.

Pks13 thioesterase: 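Polyketide synthase Pks13, Mycobacterium tuberculosis (UniProt I6X8D2). Enzyme assay of the thioesterase domain of polyketide synthase 13; the read-out is not stated. Concentration: 30 µM. The record gives no direction; the compounds picked for IC50 retests had high values, so higher reads as stronger inhibition. About 67,000 compounds were tested under these conditions; 0.46% (about 300) showed 50% or more at least once.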
CoaBC: 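Coenzyme A biosynthesis protein CoaBC, Mycobacterium tuberculosis (UniProt P9WNZ1). Enzyme assay of CoaBC with a phosphate dye (Biomol Green) read at 650 nm. Tested at 30 µM. Higher reads as stronger inhibition, judged from the few compounds that gave an IC50. Most strong results did not repeat in a second test. About 67,000 compounds were tested under these conditions; 0.06% (about 40) showed 50% or more at least once.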
PfKRS1: 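Lysine-tRNA ligase, Plasmodium falciparum 3D7 (UniProt Q8IDJ8). Enzyme assay of the cytosolic lysyl-tRNA synthetase in 384-well plates, read by luminescence. Tested at 30 µM. Higher reads as stronger inhibition, judged from the few compounds that gave an IC50. About 69,000 compounds were tested under these conditions; 0.071% (about 49) showed 50% or more at least once.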
TcHisRS: 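Enzyme assay of histidyl-tRNA synthetase; the read-out is not stated. Target: Histidine-tRNA ligase, Trypanosoma cruzi CL Brener (UniProt Q4DA54). Concentration: 30 µM. Higher reads as stronger inhibition (inferred: compounds with an IC50 in retests scored well above the rest). Of about 69,000 compounds tested this way, about 31 (0.045%) reached 50% or more in at least one test.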

| # | structure | Pks13 thioesterase | CoaBC | PfKRS1 | TcHisRS |
|---|---|---|---|---|---|
| 1 | `O=c1[nH]nc(-c2cccs2)c2sc(N3CCOCC3)nc12` | -1.291% | -5.144% | 7.56% | 7.317% |
| 2 | `Cc1ccc(CC(=O)N2CCn3cc(Cn4cncn4)nc3C2)cc1` | -31.38% | -25.49% | 3.643% | 2.186% |
| 3 | `O=C(Cc1csc(-c2ccc(Cl)cc2)n1)NC(C(=O)O)c1ccccc1` (configuration not stated) | -11.84% | 5.518% | 7.172% | -3.825% |
| 4 | `O=C(c1c(F)cccc1F)N1CCOCC1` | -12.8% | -4.85% | -3.932% | 1.739% |
| 5 | `CCN(Cc1noc(CC(C)C)n1)Cc1ccccc1C(=O)O` | -27.81% | 10.66% | 5.477% | 3.933% |
| 6 | `CN(C)C(=O)CN1CCCN(CC2CCOc3ccccc3C2)CC1` (configuration not stated) | -43.81% | -19.74% | 3.744% | 5.941% |
| 7 | `O=S(=O)(NC[C@H]1C[C@@H]2CCN1C[C@@H]2CN1CCOCC1)c1ccccc1` | -0.2009% | 6.998% | 3.192% | 12.87% |
| 8 | `COc1ccccc1OC1CCN(Cc2cnc(N(C)C)nc2)CC1` | 40.5% | 5.702% | 3.287% | 6.612% |
| 9 | `COc1cccc2c1OCC(C(=O)N1Cc3ccccc3C1)C2` (configuration not stated) | 15.92% | 4.463% | 7.317% | -3.518% |
| 10 | `COc1ccc(C)cc1C(C)NCc1cccn1C` (configuration not stated) | -29.96% | 12.62% | -2.87% | 9.392% |
| 11 | `NC1CCCCN(Cc2cc(-c3ccccc3OC(F)(F)F)no2)C1` (configuration not stated) | -6.897% | 6.962% | 8.555% | 9.756% |
| 12 | `Cc1cc(CNC(=O)C(c2ccc(F)cc2)N(C)C)n[nH]1` (configuration not stated) | -5.025% | -5.144% | -2.807% | 3.863% |
| 13 | `N#Cc1ccc(SCCOCCO)c(Cl)c1` | 7.897% | 2.947% | 9.18% | 5.172% |
| 14 | `Cc1noc(C)c1CN1CCN(c2ccnc(-c3ccccc3)n2)CC1` | 0.6334% | -1.687% | -1.716% | 3.96% |
| 15 | `CNc1ncc(CN(C)c2ncnc3onc(C)c23)cn1` | -20.12% | -4.225% | -1.186% | -0.5618% |
| 16 | `CSc1[nH]nc(NC(=O)c2cccs2)c1C#N` | -1.969% | -2.892% | -3.02% | 8.911% |
| 17 | `CN(C)CCNC(=O)Cc1cccc(I)c1` | -15.92% | 0.9823% | 0.01138% | 6.897% |
| 18 | `O=C(COc1ccc2c(c1)CCCC2=O)NCc1ccco1` | -42.56% | - | 6.967% | 8.28% |
| 19 | `CCc1nnc(Nc2cccc(C3CCN(C)CC3)n2)s1` | 12.06% | 3.098% | -3.491% | 4.494% |
| 20 | `Cc1nc(C)c2c(n1)CCN(C(=O)CC1CC1)CC2` | -22.54% | 15.94% | 2.946% | -0.5525% |
| 21 | `O=C(CSc1ccc2c(c1)OCCO2)NS(=O)(=O)c1ccccc1` | -17.42% | 6.509% | -3.027% | 1.058% |
| 22 | `CC(C)=CCN1CCN(C(=O)CSc2ccccn2)[C@H]2CS(=O)(=O)C[C@H]21` | -3.324% | 1.72% | 1.986% | 14.12% |
| 23 | `CCCSc1nc(O)c(CC)c(=O)n1-c1ccccc1` | -0.4659% | 7.559% | -3.959% | -0.8403% |
| 24 | `Cc1cncc(C(=O)N2CCc3ncc(Cn4cccn4)n3CC2)c1` | -46.19% | -1.85% | -3.68% | 2.857% |
| 25 | `Cc1oncc1C(=O)N1CCOCC2(CCN(c3ccccn3)C2)C1` (configuration not stated) | -22.34% | 3.043% | -0.1525% | 5.882% |
| 26 | `O=C(NCN1CCc2ccccc2C1)c1cnccn1` | -9.907% | -1.322% | 5.168% | 3.39% |
| 27 | `Cc1ccc(C(=O)Nc2ccn(CCC(N)=O)n2)cc1` | -6.436% | -4.645% | 8.535% | 9.278% |
| 28 | `COCc1ncc(CN2CCC3(CCC(=O)N(CC(C)O)C3)CC2)cn1` (configuration not stated) | 6.103% | 0.994% | 3.487% | -1.587% |
| 29 | `Cc1csc2cc(C(=O)NC3CC3)cnc12` | 4.166% | 0.7282% | 4.664% | 6.818% |
| 30 | `COc1ccccc1N1CCC(CNC(=O)CN2CSCC2=O)C1` (configuration not stated) | -50.7% | -2.479% | -0.1471% | 1.63% |
| 31 | `CC(Sc1nc(N)cc(N)n1)c1nc(C(C)(C)C)no1` (configuration not stated) | -25.14% | 3.186% | 0.3545% | 9.524% |
| 32 | `N#Cc1ccc(SCCC(=O)NC(N)=O)cc1` | -29.89% | 8.957% | 5.197% | -2.469% |
| 33 | `Cc1cnn(CC2CN(Cc3nc(N)c4ccccc4n3)CCO2)c1` (configuration not stated) | -5.575% | 9.231% | -1.017% | 5.66% |
| 34 | `Cn1ncc2c1C(COCC1CC1)CN(C(=O)c1ccoc1)C2` (configuration not stated) | - | -1.707% | 2.09% | -2.222% |
| 35 | `Cc1ccnn1-c1ccc(C(=O)N2CCN(c3cnccn3)CC2)cc1` | 1.07% | 5.063% | 1.918% | 7.389% |
| 36 | `COc1ccc(Oc2ncccc2NC(=O)N2CCOCC2)cc1` | -18.99% | 6.198% | 8.971% | 8.152% |
| 37 | `Cn1ccc(-c2cc(C(=O)N3CCCCC3)c3ccccn23)n1` | 0.7895% | 3.457% | 4.338% | 5.291% |
| 38 | `O=C(CSC1CCc2ccccc2NC1=O)NCCc1ccc(O)cc1` (configuration not stated) | -35.21% | 0.5109% | 6.345% | 7.273% |
| 39 | `CC(C)C(C)NC(=O)Nc1cccc2c1CCN(S(C)(=O)=O)C2` (configuration not stated) | 3.896% | -0.4132% | 2.836% | -126.7% |
| 40 | `O=c1[nH]c2ncccc2n1C1CCCCC1` | -17.01% | -0.9206% | 8.502% | 10.42% |
| 41 | `CCn1c(N)nc2cc(C(=O)N3CCCN(C)CC3)cnc21` | -7.432% | 7.273% | 0.7749% | 0.5405% |
| 42 | `CC(C)NC(=O)[C@@]12CCO[C@@H]1CCN(Cc1ccco1)C2` | 16.66% | -2.683% | 3.413% | 5.556% |
| 43 | `Cn1ccnc1N1CCN(C(=O)Cc2ccc(F)cc2)CC1` | -0.5897% | -0.1267% | -1.831% | 3.261% |
| 44 | `COc1c(Br)cc(Cl)cc1NCc1c(C)noc1C` | 30.25% | -5.357% | -2.645% | -2.762% |
| 45 | `CN1CC(=O)N(c2cccc(F)c2)CC12CCN(Cc1cnn(C)c1)C2` (configuration not stated) | -22.66% | -2.096% | 4.403% | 7.018% |
| 46 | `CC(Oc1cccc(Cl)c1)C(=O)Nc1cnn(CC(=O)NC2CC2)c1` (configuration not stated) | -5.915% | 2.334% | 2.246% | 8.333% |
| 47 | `COc1cccc(CNC[C@H]2COCc3nc4cccnc4n32)n1` | -36.32% | 8.71% | 6.655% | 1.493% |
| 48 | `Oc1cc(-c2ccsc2)nc(C2CCN(Cc3cccnc3)CC2)n1` | 3.605% | -4.294% | 1.116% | 3.101% |
| 49 | `Cc1nc(C(NC(=O)C2CCCC2)c2ccccc2F)no1` (configuration not stated) | 2.823% | 2.823% | 5.31% | 9.244% |
| 50 | `CC(=O)N(c1ccc(F)cc1)c1nc(CN2CCCC2C(C)C)cs1` (configuration not stated) | -10.7% | 0.7371% | 2.635% | 12.35% |
| 51 | `CC(=O)Nc1nc(C(=O)NCc2ccc(N3CCCCCC3)nc2)cs1` | 9.538% | 7.311% | 3.726% | 5.639% |
| 52 | `c1ccc(-c2nc(CCNCc3cccnc3)co2)cc1` | -2.968% | -2.02% | 4.036% | 11.11% |
| 53 | `CC(C)Nc1nc2c(cc1C(=O)NCC1CC1)CCN(C)CC2` | 90.8% | -18.43% | 9.76% | 6.931% |
| 54 | `CC(C)c1nn(C)c(N(C)C)c1CNC1CCOc2ccccc21` (configuration not stated) | 6.222% | -3.121% | 3.037% | 1.754% |
| 55 | `CCCSCC(=O)N1C[C@H]2CC[C@@H]1CN(c1ncccn1)C2` | -16.97% | 7.969% | 2.247% | 2.235% |
| 56 | `CC(C)NC(=O)CN(C)C(=O)c1csc(Cc2ccccc2F)n1` | -0.1587% | 6.796% | 0.7766% | 8.04% |
| 57 | `CSCCCN1C[C@H](NC(=O)c2ccc(C#N)nc2)[C@@H](C2CC2)C1` | 6.156% | 6.34% | 2.62% | 3.004% |
| 58 | `O=c1[nH]c2c(-c3ccccn3)nsc2c(=O)n1CC1CC1` | -5.476% | 5.471% | -3.322% | 11.06% |

The values are deposited in ChEMBL (CHEMBL3988442, “University of Dundee, Small-Polar-MMV Screening Library” (2021)).